Source: the supplement of paper PMC4604168 (melanoma cell lines)
Some of the results follow. Repeats are few or missing, and single values can be far off.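 Imaging used 1,536-well plates; nuclei positive for cleaved PARP by antibody were divided by total DNA-stained nuclei to yield the apoptosis fraction. Doses for screening kept most cells viable, and cell lines differ markedly in resting and induced cleaved-PARP levels.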

Assays:
Assay in all cases: cleaved PARP positive nuclei fraction relative to DMSO control; melanoma cells; higher = more apoptosis
Details in all cases: library dose: low library concentration; 72 h
[1] = test system: MZ2-MEL
[2] = test system: MeWo
[3] = test system: RPMI7951
[4] = test system: RVH-421
[5] = test system: SkMel28
[6] = test system: SkMel2
[7] = test system: SkMel30
[8] = test system: SkMel5
[9] = test system: UACC257
[10] = test system: UACC62

SMILES	cleaved PARP positive nuclei fraction [1] [%]	cleaved PARP positive nuclei fraction [2] [%]	cleaved PARP positive nuclei fraction [3] [%]	cleaved PARP positive nuclei fraction [4] [%]	cleaved PARP positive nuclei fraction [5] [%]	cleaved PARP positive nuclei fraction [6] [%]	cleaved PARP positive nuclei fraction [7] [%]	cleaved PARP positive nuclei fraction [8] [%]	cleaved PARP positive nuclei fraction [9] [%]	cleaved PARP positive nuclei fraction [10] [%]
Clc1ccc(Nc2nnc(Cc3ccncc3)c3ccccc23)cc1 [vatalanib] + CCc1ccc(CCOc2ccc(CC3SC(=O)NC3=O)cc2)nc1 [pioglitazone] (first compound 2 µM, partner dose 2 µM)	111	72.2	69.7	208	28.1	75.1	78.2	172	62.8	60.9
C=CCNC1=C2C[C@@H](C)C[C@H](OC)[C@H](O)[C@@H](C)/C=C(\C)[C@H](OC(N)=O)[C@@H](OC)/C=C\C=C(/C)C(=O)NC(=CC1=O)C2=O [Tanespimycin] + Cc1ccc(NC(=O)c2cccc(N(C)C)c2)cc1NC(=O)c1ccc(O)cc1 [ZM336372] (first compound 0.002 µM, partner dose 2 µM)	76	45	211	45	346	96.9	68.3	341	82.7	70.1
CO[C@@H]1[C@H](N(C)C(=O)c2ccccc2)C[C@H]2O[C@]1(C)n1c3ccccc3c3c4c(c5c6ccccc6n2c5c31)C(=O)NC4 [Midostaurin] + NC(=O)Nc1cc(-c2cccc(F)c2)sc1C(=O)N[C@H]1CCCNC1 [AZD7762] (first compound 0.08 µM, partner dose 0.02 µM)	52	128	131	141	223	92.8	63.5	50.4	53.8	27.9
OCc1c[nH]c2ccccc12 [Indole-3-carbinol] + O=C1NC(=O)/C(=C/c2ccc(-c3ccc(F)cc3O)o2)S1 [AS252424] (first compound 0.8 µM, partner dose 1 µM)	161	91.8	63.7	554	294	135	43.7	72	151	66.8
Clc1ccc(Nc2nnc(Cc3ccncc3)c3ccccc23)cc1 [vatalanib] + O=C(O)C(=O)Nc1sc2c(c1C(=O)O)CCNC2 [TCS401] (first compound 2 µM, partner dose 1.66667 µM)	192	82.2	81.7	37	115	140	183	220	123	148
CC(=O)c1c(C)c2cnc(Nc3ccc(N4CCNCC4)cn3)nc2n(C2CCCC2)c1=O [palbociclib] + CCN(CC)CCCCNc1ncc2cc(-c3cc(OC)cc(OC)c3)c(NC(=O)NC(C)(C)C)nc2n1 [PD173074] (first compound 0.04 µM, partner dose 0.1 µM)	88.9	51.5	133	126	179	172	103	222	216	135
OCc1c[nH]c2ccccc12 [Indole-3-carbinol] + COc1cc(Nc2ncc(F)c(Nc3ccc4c(n3)NC(=O)C(C)(C)O4)n2)cc(OC)c1OC [Tamatinib] (first compound 0.8 µM, partner dose 0.4 µM)	59.6	168	167	319	128	120	75.7	100	50.6	83.1
OCc1c[nH]c2ccccc12 [Indole-3-carbinol] + C=CCn1c(=O)c2cnc(Nc3ccc(N4CCN(C)CC4)cc3)nc2n1-c1cccc(C(C)(C)O)n1 [MK1775] (first compound 0.8 µM, partner dose 0.02 µM)	104	49.6	90.1	43.6	33.4	78.3	156	193	46.5	222
C=CCNC1=C2C[C@@H](C)C[C@H](OC)[C@H](O)[C@@H](C)/C=C(\C)[C@H](OC(N)=O)[C@@H](OC)/C=C\C=C(/C)C(=O)NC(=CC1=O)C2=O [Tanespimycin] + O=C(O)c1ccc(-c2c[nH]c3ncc(-c4ccccc4)cc23)cc1C1CCCC1 [GSK650394] (first compound 0.002 µM, partner dose 0.16 µM)	176	115	167	101	69.8	107	63.3	66.9	55.9	107
Cn1nnc2c(C(N)=O)ncn2c1=O [temozolomide] + CC(C)(C)c1cnc(CSc2cnc(NC(=O)C3CCNCC3)s2)o1 [SNS-032] (first compound 2 µM, partner dose 0.01 µM)	119	50.1	117	86.5	230	94.6	51.2	59.5	192	327
OCc1c[nH]c2ccccc12 [Indole-3-carbinol] + NC(=O)Nc1cc(-c2cccc(F)c2)sc1C(=O)N[C@H]1CCCNC1 [AZD7762] (first compound 0.8 µM, partner dose 0.02 µM)	94.4	90.8	231	83.4	69.7	138	60.7	120	142	202
C[C@@H]1CCN(C(=O)CC#N)C[C@@H]1N(C)c1ncnc2[nH]ccc12 + NCC(=O)Nc1ccc(-n2nc(C(F)(F)F)cc2-c2ccc3c(ccc4ccccc43)c2)cc1 [OSU03012] (first compound 1 µM, partner dose 1 µM)	47.3	346	45.9	67.5	134	219	142	78.4	187	93.7
C=CCn1c(=O)c2cnc(Nc3ccc(N4CCN(C)CC4)cc3)nc2n1-c1cccc(C(C)(C)O)n1 + C[C@@H]1CCN(C(=O)CC#N)C[C@@H]1N(C)c1ncnc2[nH]ccc12 [CP690550] (first compound 0.02 µM, partner dose 1 µM)	11.7	38.8	53.9	103	78.6	74.4	61.1	76.1	30.5	161
Cc1nc(Nc2ncc(C(=O)Nc3c(C)cccc3Cl)s2)cc(N2CCN(CCO)CC2)n1 [dasatanib] + Cc1ccc(NC(=O)c2cccc(N(C)C)c2)cc1NC(=O)c1ccc(O)cc1 [ZM336372] (first compound 0.004 µM, partner dose 2 µM)	144	72	139	61.3	148	57.4	68.9	45.6	53.5	95.5
Clc1ccc(Nc2nnc(Cc3ccncc3)c3ccccc23)cc1 [vatalanib] + COc1ccc(-c2ccc3c(N4CCOCC4)nc(N4C[C@@H](C)O[C@@H](C)C4)nc3n2)cc1CO [KU0063794] (first compound 2 µM, partner dose 0.02 µM)	86.4	60.5	80.5	92.7	239	17	46.3	63	154	45.9
CC(=O)c1c(C)c2cnc(Nc3ccc(N4CCNCC4)cn3)nc2n(C2CCCC2)c1=O [palbociclib] + c1cc(-c2cnn3cc(-c4ccc(OCCN5CCCCC5)cc4)cnc23)ccn1 [Dorsomorphin] (first compound 0.04 µM, partner dose 0.4 µM)	104	43.3	177	235	205	49.3	108	100	142	142
CC1(C)NC(=O)N(c2ccc([N+](=O)[O-])c(C(F)(F)F)c2)C1=O [nilutamide] + NCC(=O)Nc1ccc(-n2nc(C(F)(F)F)cc2-c2ccc3c(ccc4ccccc43)c2)cc1 [OSU03012] (first compound 1 µM, partner dose 1 µM)	181	132	53.8	118	32.8	221	128	140	95.7	156

SMILES	cleaved PARP positive nuclei fraction [1] [%]	cleaved PARP positive nuclei fraction [2] [%]	cleaved PARP positive nuclei fraction [3] [%]	cleaved PARP positive nuclei fraction [4] [%]	cleaved PARP positive nuclei fraction [5] [%]	cleaved PARP positive nuclei fraction [6] [%]	cleaved PARP positive nuclei fraction [7] [%]	cleaved PARP positive nuclei fraction [8] [%]	cleaved PARP positive nuclei fraction [9] [%]	cleaved PARP positive nuclei fraction [10] [%]
C=CCNC1=C2C[C@@H](C)C[C@H](OC)[C@H](O)[C@@H](C)/C=C(\C)[C@H](OC(N)=O)[C@@H](OC)/C=C\C=C(/C)C(=O)NC(=CC1=O)C2=O [Tanespimycin] + COc1ccc(COc2ccc(Cc3cnc(N)nc3N)cc2OC)cc1 [GW2580] (first compound 0.002 µM, partner dose 1 µM)	88.1	64.3	172	216	167	90.6	26	77.6	224	278
O=C(CCCCCCC(=O)Nc1ccccc1)NO [vorinostat] + CN(C)S(=O)(=O)c1ccc2c(c1)/C(=C/c1cc3c([nH]1)CCCC3)C(=O)N2 [SU6656] (first compound 0.08 µM, partner dose 0.4 µM)	257	58.8	68.1	83.3	139	68.6	246	66.6	153	185
Cc1cc(N2CCOCC2)cc2[nH]c(-c3c(NC[C@@H](O)c4cccc(Cl)c4)cc[nH]c3=O)nc12 + O=C(O)c1ccc(-c2c[nH]c3ncc(-c4ccccc4)cc23)cc1C1CCCC1 [GSK650394] (first compound 0.2 µM, partner dose 0.16 µM)	197	59.8	53.6	77.9	65	121	86.6	199	208	247
Cn1c(Nc2ccc(C(F)(F)F)cc2)nc2cc(Oc3ccnc(-c4ncc(C(F)(F)F)[nH]4)c3)ccc21 + CN(NC(=O)CC(=O)NN(C)C(=S)c1ccccc1)C(=S)c1ccccc1 [STA4783] (first compound 0.08 µM, partner dose 0.006 µM)	114	251	160	82.4	97.7	161	122	52.3	597	216
Cn1c(Nc2ccc(C(F)(F)F)cc2)nc2cc(Oc3ccnc(-c4ncc(C(F)(F)F)[nH]4)c3)ccc21 + C[C@@H]1CCN(C(=O)CC#N)C[C@@H]1N(C)c1ncnc2[nH]ccc12 [CP690550] (first compound 0.08 µM, partner dose 1 µM)	494	183	313	45.1	90.6	140	109	118	398	140
CC(C)(C)c1cnc(CSc2cnc(NC(=O)C3CCNCC3)s2)o1 + NC(=O)Nc1cc(-c2cccc(F)c2)sc1C(=O)N[C@H]1CCCNC1 [AZD7762] (first compound 0.01 µM, partner dose 0.02 µM)	110	138	46.8	75.6	221	139	118	60.1	62.2	85.6
Cn1c(Nc2ccc(C(F)(F)F)cc2)nc2cc(Oc3ccnc(-c4ncc(C(F)(F)F)[nH]4)c3)ccc21 + OCCn1cc(-c2cnc3nnn(Cc4ccc5ncccc5c4)c3n2)cn1 [PF04217903] (first compound 0.08 µM, partner dose 1 µM)	138	89	106	107	73.1	93.7	156	79.8	210	133
Cn1nnc2c(C(N)=O)ncn2c1=O [temozolomide] + COc1cc2c(Oc3ccc4[nH]c(C)cc4c3F)ncnc2cc1OCCCN1CCCC1 [cediranib] (first compound 2 µM, partner dose 0.4 µM)	97.7	32.7	194	195	52.6	69.3	275	71.7	206	108
CC(=O)c1c(C)c2cnc(Nc3ccc(N4CCNCC4)cn3)nc2n(C2CCCC2)c1=O [palbociclib] + COc1cc2c(Oc3ccc4[nH]c(C)cc4c3F)ncnc2cc1OCCCN1CCCC1 [cediranib] (first compound 0.04 µM, partner dose 0.4 µM)	146	119	164	152	42.3	117	72.4	302	51.9	112
Cc1nc(Nc2ncc(C(=O)Nc3c(C)cccc3Cl)s2)cc(N2CCN(CCO)CC2)n1 [dasatanib] + CO[C@@H]1[C@H](N(C)C(=O)c2ccccc2)C[C@H]2O[C@]1(C)n1c3ccccc3c3c4c(c5c6ccccc6n2c5c31)C(=O)NC4 [Midostaurin] (first compound 0.004 µM, partner dose 0.08 µM)	213	140	76.5	83	127	144	69.8	102	85.9	167
Clc1ccc(Nc2nnc(Cc3ccncc3)c3ccccc23)cc1 [vatalanib] + O=C(O)c1ccc(-c2c[nH]c3ncc(-c4ccccc4)cc23)cc1C1CCCC1 [GSK650394] (first compound 2 µM, partner dose 0.16 µM)	177	139	80.2	76.1	290	128	121	159	145	89.8
O=C(CCCCCCC(=O)Nc1ccccc1)NO [vorinostat] + C=CCn1c(=O)c2cnc(Nc3ccc(N4CCN(C)CC4)cc3)nc2n1-c1cccc(C(C)(C)O)n1 [MK1775] (first compound 0.08 µM, partner dose 0.02 µM)	127	202	185	177	394	37.4	89.1	245	83.7	109
Cn1nnc2c(C(N)=O)ncn2c1=O [temozolomide] + NC(=O)Nc1cc(-c2cccc(F)c2)sc1C(=O)N[C@H]1CCCNC1 [AZD7762] (first compound 2 µM, partner dose 0.02 µM)	258	158	56.8	82.1	54.1	57.7	208	63.5	58.8	28
CO[C@@H]1[C@H](N(C)C(=O)c2ccccc2)C[C@H]2O[C@]1(C)n1c3ccccc3c3c4c(c5c6ccccc6n2c5c31)C(=O)NC4 [Midostaurin] + NCC(=O)Nc1ccc(-n2nc(C(F)(F)F)cc2-c2ccc3c(ccc4ccccc43)c2)cc1 [OSU03012] (first compound 0.08 µM, partner dose 1 µM)	84.9	201	154	63.8	91.8	124	244	80.8	37.2	76.9
C=CCNC1=C2C[C@@H](C)C[C@H](OC)[C@H](O)[C@@H](C)/C=C(\C)[C@H](OC(N)=O)[C@@H](OC)/C=C\C=C(/C)C(=O)NC(=CC1=O)C2=O [Tanespimycin] + CN(C)S(=O)(=O)c1ccc2c(c1)/C(=C/c1cc3c([nH]1)CCCC3)C(=O)N2 [SU6656] (first compound 0.002 µM, partner dose 0.4 µM)	101	70.7	242	108	902	34.8	71.9	92.5	163	490
C[C@]1(c2nc3c(C(N)=O)cccc3[nH]2)CCCN1 [Veliparib] + CC1(C)NC(=O)N(c2ccc([N+](=O)[O-])c(C(F)(F)F)c2)C1=O [nilutamide] (first compound 1.4 µM, partner dose 1 µM)	74.1	70.6	113	40.8	30.7	82.8	70	74.8	118	180
Clc1ccc(Nc2nnc(Cc3ccncc3)c3ccccc23)cc1 [vatalanib] + Cn1cncc1[C@@](N)(c1ccc(Cl)cc1)c1ccc2c(c1)c(-c1cccc(Cl)c1)cc(=O)n2C [tipifarnib] (first compound 2 µM, partner dose 0.01 µM)	62.2	75.9	275	153	145	117	152	44.2	108	434

An excerpt of these results, in markdown:

| SMILES | cleaved PARP positive nuclei fraction [1] [%] | cleaved PARP positive nuclei fraction [2] [%] | cleaved PARP positive nuclei fraction [3] [%] | cleaved PARP positive nuclei fraction [4] [%] | cleaved PARP positive nuclei fraction [5] [%] | cleaved PARP positive nuclei fraction [6] [%] | cleaved PARP positive nuclei fraction [7] [%] | cleaved PARP positive nuclei fraction [8] [%] | cleaved PARP positive nuclei fraction [9] [%] | cleaved PARP positive nuclei fraction [10] [%] |
| --- | --- | --- | --- | --- | --- | --- | --- | --- | --- | --- |
| Cn1c(Nc2ccc(C(F)(F)F)cc2)nc2cc(Oc3ccnc(-c4ncc(C(F)(F)F)[nH]4)c3)ccc21 + CN(NC(=O)CC(=O)NN(C)C(=S)c1ccccc1)C(=S)c1ccccc1 [STA4783] (first compound 0.08 µM, partner dose 0.006 µM) | 114 | 251 | 160 | 82.4 | 97.7 | 161 | 122 | 52.3 | 597 | 216 |
| Cn1c(Nc2ccc(C(F)(F)F)cc2)nc2cc(Oc3ccnc(-c4ncc(C(F)(F)F)[nH]4)c3)ccc21 + C[C@@H]1CCN(C(=O)CC#N)C[C@@H]1N(C)c1ncnc2[nH]ccc12 [CP690550] (first compound 0.08 µM, partner dose 1 µM) | 494 | 183 | 313 | 45.1 | 90.6 | 140 | 109 | 118 | 398 | 140 |
